Laboratory results reported in the supplement of paper PMC12067093, “Discovery and optimisation of a covalent ligand for TRIM25 and its application to targeted protein ubiquitination” (Chemical Science, 2025).
Some of the results follow.

By UniProt entry, the sequences of proteins in these tests, tags left out. Where a name states a change or a piece, a line headed by the entry shows the natural chain unless it says otherwise.
UniProt Q53H82: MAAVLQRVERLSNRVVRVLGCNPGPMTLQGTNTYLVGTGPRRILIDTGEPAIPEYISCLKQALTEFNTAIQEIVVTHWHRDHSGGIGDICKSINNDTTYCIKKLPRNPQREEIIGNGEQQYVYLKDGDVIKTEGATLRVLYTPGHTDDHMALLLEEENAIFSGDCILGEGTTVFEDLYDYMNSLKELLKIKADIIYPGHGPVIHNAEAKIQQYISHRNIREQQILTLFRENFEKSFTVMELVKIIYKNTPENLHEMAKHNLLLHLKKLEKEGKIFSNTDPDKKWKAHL
UniProt P50748: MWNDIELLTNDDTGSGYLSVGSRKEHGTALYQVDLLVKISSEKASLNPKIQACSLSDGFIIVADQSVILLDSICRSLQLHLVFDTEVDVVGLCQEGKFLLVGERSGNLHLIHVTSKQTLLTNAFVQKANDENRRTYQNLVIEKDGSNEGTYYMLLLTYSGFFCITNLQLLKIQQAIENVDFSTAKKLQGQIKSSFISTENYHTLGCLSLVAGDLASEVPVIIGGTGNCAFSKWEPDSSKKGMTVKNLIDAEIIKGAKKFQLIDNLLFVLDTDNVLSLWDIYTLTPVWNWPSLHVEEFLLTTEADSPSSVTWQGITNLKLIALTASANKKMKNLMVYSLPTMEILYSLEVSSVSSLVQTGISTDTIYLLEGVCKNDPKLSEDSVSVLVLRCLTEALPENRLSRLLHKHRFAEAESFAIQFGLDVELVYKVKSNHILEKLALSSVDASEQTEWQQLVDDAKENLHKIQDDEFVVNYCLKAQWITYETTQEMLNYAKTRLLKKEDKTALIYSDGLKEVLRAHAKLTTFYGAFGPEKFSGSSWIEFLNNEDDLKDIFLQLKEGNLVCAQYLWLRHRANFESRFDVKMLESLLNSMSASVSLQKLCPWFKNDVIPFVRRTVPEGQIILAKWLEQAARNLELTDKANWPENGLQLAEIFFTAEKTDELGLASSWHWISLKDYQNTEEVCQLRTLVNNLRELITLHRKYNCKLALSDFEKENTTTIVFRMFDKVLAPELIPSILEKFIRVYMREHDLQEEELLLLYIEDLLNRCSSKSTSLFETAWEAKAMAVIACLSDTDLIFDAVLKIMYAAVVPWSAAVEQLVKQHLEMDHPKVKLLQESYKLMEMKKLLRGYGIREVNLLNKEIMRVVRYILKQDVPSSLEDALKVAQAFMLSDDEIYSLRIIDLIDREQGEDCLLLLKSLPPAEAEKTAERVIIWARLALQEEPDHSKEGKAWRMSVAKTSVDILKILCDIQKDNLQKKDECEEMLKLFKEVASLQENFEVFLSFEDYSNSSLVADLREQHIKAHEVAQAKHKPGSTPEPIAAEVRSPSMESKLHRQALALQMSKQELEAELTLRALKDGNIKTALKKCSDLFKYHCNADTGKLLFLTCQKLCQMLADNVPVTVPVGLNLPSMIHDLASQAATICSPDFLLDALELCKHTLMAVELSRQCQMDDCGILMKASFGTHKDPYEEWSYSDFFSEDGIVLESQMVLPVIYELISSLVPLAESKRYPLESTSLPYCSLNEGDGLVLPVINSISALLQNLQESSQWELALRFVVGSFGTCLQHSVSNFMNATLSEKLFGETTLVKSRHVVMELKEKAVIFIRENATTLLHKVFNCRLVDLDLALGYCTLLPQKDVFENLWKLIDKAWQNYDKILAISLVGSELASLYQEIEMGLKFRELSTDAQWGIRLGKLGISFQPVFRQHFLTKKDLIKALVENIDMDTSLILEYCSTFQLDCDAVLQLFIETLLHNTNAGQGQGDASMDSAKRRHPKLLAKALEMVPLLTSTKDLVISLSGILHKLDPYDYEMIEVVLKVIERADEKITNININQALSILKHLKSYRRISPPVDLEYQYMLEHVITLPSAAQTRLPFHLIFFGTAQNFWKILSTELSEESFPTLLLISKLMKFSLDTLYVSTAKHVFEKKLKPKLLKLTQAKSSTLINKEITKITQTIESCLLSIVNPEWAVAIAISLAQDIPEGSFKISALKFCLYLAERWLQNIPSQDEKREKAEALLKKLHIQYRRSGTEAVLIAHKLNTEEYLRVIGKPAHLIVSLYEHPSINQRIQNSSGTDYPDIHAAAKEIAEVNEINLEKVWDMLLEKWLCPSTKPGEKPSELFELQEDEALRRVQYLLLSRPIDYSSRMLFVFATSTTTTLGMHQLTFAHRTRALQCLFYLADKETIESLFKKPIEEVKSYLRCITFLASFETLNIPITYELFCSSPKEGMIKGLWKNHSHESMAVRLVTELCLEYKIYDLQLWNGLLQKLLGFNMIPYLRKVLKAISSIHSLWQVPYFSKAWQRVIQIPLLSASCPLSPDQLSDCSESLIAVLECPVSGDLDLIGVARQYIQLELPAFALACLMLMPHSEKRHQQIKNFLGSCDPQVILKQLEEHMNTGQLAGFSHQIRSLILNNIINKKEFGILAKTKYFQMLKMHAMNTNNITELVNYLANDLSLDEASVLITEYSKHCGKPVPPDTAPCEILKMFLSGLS
UniProt Q99661: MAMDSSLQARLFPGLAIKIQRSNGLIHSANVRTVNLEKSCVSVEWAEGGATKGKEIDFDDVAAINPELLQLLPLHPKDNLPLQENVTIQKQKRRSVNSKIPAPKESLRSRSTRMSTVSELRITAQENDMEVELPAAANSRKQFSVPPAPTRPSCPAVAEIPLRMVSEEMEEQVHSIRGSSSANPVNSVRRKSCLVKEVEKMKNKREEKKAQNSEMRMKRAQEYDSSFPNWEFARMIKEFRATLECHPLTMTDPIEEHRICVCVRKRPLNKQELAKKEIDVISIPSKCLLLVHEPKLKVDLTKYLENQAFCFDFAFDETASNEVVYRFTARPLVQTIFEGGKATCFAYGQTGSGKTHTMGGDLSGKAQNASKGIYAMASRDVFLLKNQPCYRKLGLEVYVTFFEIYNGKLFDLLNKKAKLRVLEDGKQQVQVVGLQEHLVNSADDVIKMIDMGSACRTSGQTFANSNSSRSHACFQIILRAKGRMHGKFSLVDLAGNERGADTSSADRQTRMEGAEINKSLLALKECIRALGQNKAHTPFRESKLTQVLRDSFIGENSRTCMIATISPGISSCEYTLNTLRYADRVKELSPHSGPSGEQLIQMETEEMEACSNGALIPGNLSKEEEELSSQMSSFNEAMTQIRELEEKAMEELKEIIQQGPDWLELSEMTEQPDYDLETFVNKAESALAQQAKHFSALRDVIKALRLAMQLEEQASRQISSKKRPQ
UniProt Q15031: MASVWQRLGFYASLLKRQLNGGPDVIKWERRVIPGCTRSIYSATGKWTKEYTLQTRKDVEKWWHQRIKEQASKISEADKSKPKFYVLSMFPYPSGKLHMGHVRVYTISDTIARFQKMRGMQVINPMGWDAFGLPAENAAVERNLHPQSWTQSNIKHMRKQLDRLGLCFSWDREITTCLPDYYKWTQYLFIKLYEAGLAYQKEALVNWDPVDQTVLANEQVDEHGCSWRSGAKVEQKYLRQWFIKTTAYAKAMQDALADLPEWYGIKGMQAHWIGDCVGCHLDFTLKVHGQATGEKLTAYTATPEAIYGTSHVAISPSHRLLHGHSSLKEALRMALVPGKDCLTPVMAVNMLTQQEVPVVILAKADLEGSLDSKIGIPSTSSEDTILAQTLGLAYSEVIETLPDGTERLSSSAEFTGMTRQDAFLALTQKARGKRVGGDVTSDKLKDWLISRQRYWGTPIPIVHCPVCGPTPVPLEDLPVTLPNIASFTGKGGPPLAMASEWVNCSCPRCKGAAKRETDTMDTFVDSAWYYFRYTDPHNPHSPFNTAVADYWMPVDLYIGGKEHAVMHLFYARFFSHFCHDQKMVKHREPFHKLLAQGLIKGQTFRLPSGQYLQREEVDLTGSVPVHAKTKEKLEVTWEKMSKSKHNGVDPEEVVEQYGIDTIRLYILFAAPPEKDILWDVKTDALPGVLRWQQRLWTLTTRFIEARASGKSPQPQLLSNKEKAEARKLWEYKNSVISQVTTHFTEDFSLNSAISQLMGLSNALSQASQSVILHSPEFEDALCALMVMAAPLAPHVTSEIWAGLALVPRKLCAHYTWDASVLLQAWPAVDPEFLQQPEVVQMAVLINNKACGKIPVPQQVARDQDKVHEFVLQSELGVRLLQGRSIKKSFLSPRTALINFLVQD
UniProt Q969R5, whole entry, looked up: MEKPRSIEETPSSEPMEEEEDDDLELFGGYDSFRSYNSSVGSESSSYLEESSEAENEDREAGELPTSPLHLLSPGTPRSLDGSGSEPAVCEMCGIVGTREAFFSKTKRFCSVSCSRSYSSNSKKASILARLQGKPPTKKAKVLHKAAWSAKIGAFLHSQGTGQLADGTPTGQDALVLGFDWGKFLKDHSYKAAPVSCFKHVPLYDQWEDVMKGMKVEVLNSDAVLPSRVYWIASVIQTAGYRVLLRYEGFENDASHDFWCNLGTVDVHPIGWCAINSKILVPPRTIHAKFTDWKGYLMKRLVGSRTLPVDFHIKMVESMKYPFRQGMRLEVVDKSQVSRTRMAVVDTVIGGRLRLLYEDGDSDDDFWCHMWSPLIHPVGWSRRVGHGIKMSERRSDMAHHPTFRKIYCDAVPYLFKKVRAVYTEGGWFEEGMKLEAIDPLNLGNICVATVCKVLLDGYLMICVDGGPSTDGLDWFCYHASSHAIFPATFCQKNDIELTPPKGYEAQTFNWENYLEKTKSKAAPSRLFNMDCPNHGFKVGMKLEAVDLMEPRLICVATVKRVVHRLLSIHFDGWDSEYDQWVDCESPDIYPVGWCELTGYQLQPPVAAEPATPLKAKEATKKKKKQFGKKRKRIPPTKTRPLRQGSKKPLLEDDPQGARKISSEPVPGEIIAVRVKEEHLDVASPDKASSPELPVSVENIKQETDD
UniProt Q9NS86: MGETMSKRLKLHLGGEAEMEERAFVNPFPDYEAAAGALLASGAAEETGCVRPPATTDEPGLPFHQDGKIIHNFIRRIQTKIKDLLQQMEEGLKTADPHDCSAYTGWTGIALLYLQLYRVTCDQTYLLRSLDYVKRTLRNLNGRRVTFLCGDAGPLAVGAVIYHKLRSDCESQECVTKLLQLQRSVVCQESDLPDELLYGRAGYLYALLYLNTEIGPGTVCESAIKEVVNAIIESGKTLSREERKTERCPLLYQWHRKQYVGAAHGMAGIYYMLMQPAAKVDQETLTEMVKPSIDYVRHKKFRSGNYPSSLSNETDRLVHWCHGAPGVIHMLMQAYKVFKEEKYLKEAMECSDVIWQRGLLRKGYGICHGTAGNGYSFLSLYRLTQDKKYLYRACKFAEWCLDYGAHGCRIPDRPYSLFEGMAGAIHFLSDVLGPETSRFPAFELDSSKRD
UniProt O00629, whole entry, looked up: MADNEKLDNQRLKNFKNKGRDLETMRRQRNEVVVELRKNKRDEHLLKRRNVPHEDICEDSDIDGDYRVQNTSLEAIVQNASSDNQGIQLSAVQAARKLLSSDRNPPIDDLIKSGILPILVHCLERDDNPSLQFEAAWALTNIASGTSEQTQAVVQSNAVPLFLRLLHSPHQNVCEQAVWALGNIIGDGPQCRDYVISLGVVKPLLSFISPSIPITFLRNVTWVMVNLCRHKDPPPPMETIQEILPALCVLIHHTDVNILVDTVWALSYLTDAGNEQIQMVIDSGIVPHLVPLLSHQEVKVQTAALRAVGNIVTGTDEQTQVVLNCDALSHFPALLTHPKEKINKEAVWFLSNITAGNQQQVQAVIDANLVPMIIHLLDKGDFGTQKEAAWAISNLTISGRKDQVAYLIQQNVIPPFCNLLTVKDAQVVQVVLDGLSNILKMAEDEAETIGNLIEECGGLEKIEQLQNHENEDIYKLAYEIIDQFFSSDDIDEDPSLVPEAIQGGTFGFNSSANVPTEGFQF
UniProt P13796: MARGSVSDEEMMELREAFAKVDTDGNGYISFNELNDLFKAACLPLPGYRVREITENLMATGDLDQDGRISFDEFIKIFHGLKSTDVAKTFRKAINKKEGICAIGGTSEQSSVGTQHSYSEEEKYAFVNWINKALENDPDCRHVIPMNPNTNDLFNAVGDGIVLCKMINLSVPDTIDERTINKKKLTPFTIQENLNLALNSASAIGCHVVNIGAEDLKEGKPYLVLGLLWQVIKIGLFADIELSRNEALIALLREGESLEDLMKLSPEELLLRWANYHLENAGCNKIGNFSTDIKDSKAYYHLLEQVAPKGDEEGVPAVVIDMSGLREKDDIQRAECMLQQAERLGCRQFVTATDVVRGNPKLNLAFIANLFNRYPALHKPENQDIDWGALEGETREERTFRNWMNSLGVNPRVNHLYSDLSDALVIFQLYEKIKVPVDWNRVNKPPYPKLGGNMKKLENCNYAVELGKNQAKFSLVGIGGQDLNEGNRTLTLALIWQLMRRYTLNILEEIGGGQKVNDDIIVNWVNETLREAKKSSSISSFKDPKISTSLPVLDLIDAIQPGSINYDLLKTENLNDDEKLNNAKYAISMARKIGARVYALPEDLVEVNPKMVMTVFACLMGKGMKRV

Compound: Cc1cc(ccc1-c1ccccc1)C(=O)N1CCCN(CC1)C(=O)CCl [compound 10]
Test: probe-labelled cysteine peptide fold change vs DMSO (competition) (log2 fold change); higher = less target engagement (more negative = stronger competition)
Details: THP-1, incubation time: 4 h
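Further: competitive profiling in live THP-1 cells: cysteine peptides tagged with an iodoacetamide desthiobiotin (IA-DTB) probe, intensity after compound treatment relative to DMSO-treated cells.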

Row | Target | probe-labelled cysteine peptide fold change (10 µM) | probe-labelled cysteine peptide fold change (50 µM)
1 | LAMTOR5_O43504_66_LTSDPTDIPVVCLESDNGNIMIQK (UniProt O43504) | -0.0338 | 0.00926
2 | LARP4_Q71RC2_65_VWQEIAPGNTDATPVTHGTESSWHEIAATSGAHPEGNAELSEDICK (UniProt Q71RC2) | 0.191 | 0.0296
3 | LARP1B_Q659C4_102_CQPEANKPTHNNR, A0A3B3ISF0+Q659C4 | -0.115 | -0.199
4 | LACTB2_Q53H82_90_DHSGGIGDICK (UniProt Q53H82) | -0.0717 | -0.0333
5 | KNTC1_P50748_390_CLTEALPENR (UniProt P50748) | 0.158 | 0.0608
6 | KNL1_Q8NG31_1579_QVIQTHVNAGEAPDPVITSNVPCFHSIKPNLNNLNGK (UniProt Q8NG31) | -0.0675 | -0.759
7 | KIF2C_Q99661_473_SHACFQIILR (UniProt Q99661) | -0.148 | 0.0791
8 | KIF5B_P33176_7_ADLAECNIK (UniProt P33176) | -0.027 | -0.0965
9 | KPNB1_Q14974_345_QDENDDDDDWNPCK (UniProt Q14974) | 0.109 | -0.0163
10 | LARS2_Q15031_578_FFSHFCHDQK (UniProt Q15031) | 0.289 | 0.305
11 | L3MBTL2_Q969R5_554_LICVATVK (UniProt Q969R5) | 0.0463 | 0.502
12 | LENG8_Q96PV6_643_GDHEEFNQCQTQLK (UniProt Q96PV6) | 0.166 | 0.0982
13 | KMT2C_Q8NEZ4_638_HICGEDQIEDK (UniProt Q8NEZ4) | 0.254 | 0.67
14 | LDHD_Q86WU2_429_EDLNASGLTGSIVGHVGDGNFHCILLVNPDDAEELGR (UniProt Q86WU2) | -0.0221 | -0.145
15 | L1RE1_Q9UN81_111_CDQLEER (UniProt Q9UN81) | 0.0418 | 0.128
16 | LANCL2_Q9NS86_248_CPLLYQWHR (UniProt Q9NS86) | -0.115 | 0.026
17 | LARP4B_Q92615_167_TLEFCLSR (UniProt Q92615) | 0.0369 | -0.0021
18 | KMT2B_Q9UMN6_353_VGSGQGGSPCWK (UniProt Q9UMN6) | -0.0261 | -0.126

Row | Target | probe-labelled cysteine peptide fold change (10 µM) | probe-labelled cysteine peptide fold change (50 µM)
19 | KPNA4_O00629_57_NVPHEDICEDSDIDGDYR (UniProt O00629) | -0.294 | -0.212
20 | KIF4A_O95239_443_QHAACK (UniProt O95239) | -0.0955 | -0.0284
21 | LDHA_P00338_163_VIGSGCNLDSAR (UniProt P00338) | -0.0735 | 0.0826
22 | KIF2C_Q99661_287_CLLLVHEPK (UniProt Q99661) | 0.181 | -0.0818
23 | KLHDC4_Q8TBB5_58_RTQTVELPCPPPSPR (UniProt Q8TBB5) | -0.0752 | 0.0225
24 | L3MBTL2_Q969R5_368_LLYEDGDSDDDFWCHMWSPLIHPVGWSR (UniProt Q969R5) | 0.342 | 0.38
25 | LARP4_Q71RC2_623_KLSYAEVCQKPPKEPSSVLVQPLR (UniProt Q71RC2) | 0.0129 | -0.0495
26 | LANCL1_O43813_363_FAEWCLEYGEHGCR (UniProt O43813) | -0.177 | 0.272
27 | KNTC1_P50748_980_KDECEEMLK (UniProt P50748) | -0.188 | 0.00532
28 | LACTB2_Q53H82_100_SINNDTTYCIK (UniProt Q53H82) | 0.0283 | -0.176
29 | LEMD3_Q9Y2U8_547_LAQLAGDHECGSSSQR (UniProt Q9Y2U8) | -0.0495 | 0.0938
30 | KYNU_Q16719_22_CHPTDER (UniProt Q16719) | 0.483 | 0.171
31 | LCP1_P13796_283_WANYHLENAGCNK (UniProt P13796) | 0.0317 | 0.184
32 | LDHB_P07195_294_GMYGIENEVFLSLPCILNAR (UniProt P07195) | 0.0389 | 0.0679
33 | LANCL2_Q9NS86_350_EAMECSDVIWQR (UniProt Q9NS86) | -0.222 | 0.0818
34 | LAS1L_Q9Y4W2_60_AEWDQVTVYLFCDDHK (UniProt Q9Y4W2) | 0.0876 | 0.334
35 | KMT2B_Q9UMN6_1268_HLLECER (UniProt Q9UMN6) | 0.0539 | -0.143
